Results as given in the supplement of paper PMC12823440, “Inhibitors supercharge kinase turnover through native proteolytic circuits” (Nature, 2025).
This is one part of the list. Hit calls seldom repeat between salt and free forms of one compound.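 Kinases, fused to nanoluciferase, were expressed in K562 cells; luminescence was measured every 4 h from 2 to 18 h as percent of control (DMSO = 100%, positive control = 0%). A time point is decreased if signal falls significantly (2 sigma). Hits were called by the authors by a rule that is not shown; the count of time points alone does not decide it.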

Amino acid sequences for entries named in this document (tags omitted). A change or cut given only in a name is not applied to a line headed by its entry.
UniProt Q06187: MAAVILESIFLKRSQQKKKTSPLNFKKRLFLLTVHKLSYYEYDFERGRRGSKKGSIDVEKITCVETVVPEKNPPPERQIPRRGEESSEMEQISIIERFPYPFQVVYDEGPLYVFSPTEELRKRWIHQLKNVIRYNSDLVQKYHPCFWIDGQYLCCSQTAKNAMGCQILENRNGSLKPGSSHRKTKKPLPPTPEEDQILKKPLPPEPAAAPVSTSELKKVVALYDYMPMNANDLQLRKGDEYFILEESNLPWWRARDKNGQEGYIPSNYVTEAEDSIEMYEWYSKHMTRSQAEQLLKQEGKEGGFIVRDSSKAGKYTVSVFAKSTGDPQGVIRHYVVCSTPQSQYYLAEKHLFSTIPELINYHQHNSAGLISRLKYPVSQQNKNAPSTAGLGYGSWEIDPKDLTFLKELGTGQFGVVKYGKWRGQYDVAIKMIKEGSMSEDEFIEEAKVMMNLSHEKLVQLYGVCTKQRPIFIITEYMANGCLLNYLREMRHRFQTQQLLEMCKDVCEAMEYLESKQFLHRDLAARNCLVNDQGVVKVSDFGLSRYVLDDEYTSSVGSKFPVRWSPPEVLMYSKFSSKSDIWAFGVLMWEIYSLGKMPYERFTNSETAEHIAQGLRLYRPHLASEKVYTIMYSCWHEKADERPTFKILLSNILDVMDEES

test system: BRAF_V600E; assay: number of time points (of 5) at which kinase-Nluc abundance scored as decreased, DMSO-normalised (count); higher = more persistent destabilization; settings: K562; 2-18 h

Row | SMILES | number of time points
1 | C=C(CCC=C(C)C)[C@H]1CC[C@]2(C)[C@@H]1[C@H](O)C[C@@H]1[C@@]3(C)CC[C@H](O[C@@H]4O[C@H](CO)[C@@H](O)[C@H](O)[C@H]4O[C@@H]4O[C@H](CO)[C@@H](O)[C@H](O)[C@H]4O)C(C)(C)[C@@H]3CC[C@]12C [Ginsenoside Rk1] (10 µM) | 0
2 | CC(C)=CC[C@H](O)C1=CC(=O)c2c(O)ccc(O)c2C1=O [(-)-Alkannin] (2.5 µM) | 0
3 | N#Cc1c(-c2ccccc2)cc(-c2cc(Br)ccc2O)[nH]c1=O (10 µM) | 0
4 | CCn1c(-c2nonc2N)nc2cnc(Oc3cccc(NC(=O)c4ccc(OCCN5CCOCC5)cc4)c3)cc21 (10 µM) | 0
5 | CO[C@H]1C[C@@H]2CC[C@@H](C)[C@@](O)(O2)C(=O)C(=O)N2CCCC[C@H]2C(=O)O[C@H]([C@H](C)C[C@@H]2CC[C@@H](O)[C@H](OC)C2)CC(=O)[C@H](C)/C=C(\C)[C@@H](O)[C@@H](OC)C(=O)[C@H](C)C[C@H](C)/C=C/C=C/C=C/1C [Rapamycin] (10 µM) | 0
6 | CC(C)=CCC[C@](C)(O[C@@H]1O[C@H](CO)[C@@H](O)[C@H](O)[C@H]1O)[C@H]1CC[C@]2(C)[C@@H]1[C@H](O)C[C@@H]1[C@@]3(C)CC[C@H](O)C(C)(C)[C@@H]3[C@@H](O[C@@H]3O[C@H](CO)[C@@H](O)[C@H](O)[C@H]3O[C@@H]3O[C@@H](C)[C@H](O)[C@@H](O)[C@H]3O)C[C@]12C [Ginsenoside Re] (10 µM) | 0
7 | Cn1c(=O)c(F)c(Nc2ccc(I)cc2F)c2c(=O)n(C[C@@H](O)CO)cnc21 (10 µM) | 2

biological target: BTK (UniProt Q06187); assay: as above; settings: K562; 2-18 h

Row | SMILES | number of time points
8 | NCc1ccc(Nc2ncc(F)c(Nc3ccccc3)n2)cc1 (10 µM) | 0
9 | C=C(C)C(=O)Nc1cccc(-c2ncnc3[nH]cc(C(=O)OCC)c23)c1 (10 µM) | 0
10 | CCOc1cc(C(=O)N2CCC(N3CCN(C)CC3)CC2)ccc1Nc1ncc2c(n1)N(C1CCCC1)c1ccccc1C(=O)N2C (10 µM) | 0
11 | CCOc1ccc(C(=O)Nc2ncc([N+](=O)[O-])s2)cc1 (10 µM) | 0
12 | CNC(=O)Nc1ccc(-c2cc(-c3ccnc(Nc4ccc(C)c(S(=O)(=O)N(C)C)c4)n3)ccn2)cc1 [hSMG-1 inhibitor 11e] (2.5 µM) | 0
13 | CNC(=O)c1ccc(-c2cnc3cnc(C(=O)N(C)c4ccc(Cl)cc4)cn23)cc1 (2.5 µM) | 0
14 | COc1cccc(-n2c(=O)[nH]c3cc(Cl)n(-c4ccc(-c5cccc(OC)c5O)cc4)c3c2=O)c1 (2.5 µM) | 0
15 | O=C(Nc1cccnc1)c1cc(C(=O)c2c(F)cccc2Br)c[nH]1 (10 µM) | 0
16 | CN(CC(=O)N(Cc1ccc(C2CCCCC2)cc1)c1ccc(C(=O)O)cc1)S(=O)(=O)c1c(F)c(F)c(F)c(F)c1F (2.5 µM) | 0
17 | COc1c(NC(=O)C(=O)c2ccc(OCCN3CCOCC3)c3ccccc23)cc(C(C)(C)C)cc1NS(C)(=O)=O (2.5 µM) | 0
18 | CC(C)CC1(O)CCN(C(=O)c2ccc(NS(=O)(=O)c3cccc4nccnc34)cc2)CC1 (10 µM) | 0
19 | O=C(/C=C/c1ccc(O)c(O)c1)c1ccc(O[C@@H]2O[C@H](CO)[C@@H](O)[C@H](O)[C@H]2O)c(O)c1O [Marein] (10 µM) | 0
20 | Cc1cc2cc(Nc3ccnc(Nc4ccc5[nH]c(C)cc5c4)n3)ccc2[nH]1 (2.5 µM) | 0
21 | Cc1cc(Nc2cc(Cl)nc(Oc3ccc([N+](=O)[O-])cc3)n2)n[nH]1 [Autophinib] (2.5 µM) | 0
22 | Fc1ccc(-c2nc(-c3ccccc3F)[nH]c2-c2ccncc2)cc1 (2.5 µM) | 0
23 | OC(COc1ccc(C(F)(F)F)cc1)CN(Cc1ccccc1)Cc1ccccc1 (configuration not stated) (2.5 µM) | 0
24 | COc1ccc2[nH]cc(/C=C3\C(=O)Nc4ccc(NC(=O)CCN5CCCCC5)cc43)c2c1 (2.5 µM) | 0
25 | CS(=O)(=O)c1ccc(-c2noc(C(F)(F)F)c2-c2ccccc2)cc1 (10 µM) | 0
26 | COCCO[C@@H]1[C@H](O)[C@@H](CO)O[C@H]1n1cnc2c(=O)[nH]c(N)nc21 [2′-O-(2-Methoxyethyl)guanosine] (10 µM) | 0
27 | Cn1cnc(-c2cc3nccc(Oc4ccc(NC(=S)NC(=O)Cc5ccccc5)cc4F)c3s2)c1 [MGCD-265 analog] (10 µM) | 0
